Source: PubChem BioAssay AID1259308 (NCATS, 2017)

Screen: 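Genes whose loss raises luciferase production in HEK293 cells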 (primary screen)
Cells: human HEK293 embryonic kidney cells stably expressing firefly luciferase (HEK-CMV-Luc2-Hygro)
Reagent: single siRNA against human genes, 0.8 pmol siRNA per well
Timing: 72 h
Detection: 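Luciferase light (ONE-Glo) measured on one replicate plate set and viability (CellTiter-Glo) on the other, scaled to a negative control siRNA, with robust z-scores and luciferase per cell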
Scale: total luciferase, z-score and total luciferase, % of control: higher = more reporter protein produced
Hit rule: 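An siRNA counts as active if its total luciferase robust z-score exceeds 3; genes with two or more such siRNAs out of three were retested with fresh siRNAs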
Meaning of the calls: active = raised luciferase; inactive = no rise
In all, the deposit lists about 59,000 reagents; this is a part drawn at random. About 1,510 of them (2.6%) count as active. 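Calls use total luciferase alone and ignore viability, so some active siRNAs may act by altering cell number.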 Reagents against one gene are numbered here. Not all columns of the deposit are shown.

gene | reagent no. | total luciferase, z-score | total luciferase, % of control | outcome
PAPSS1 (GeneID 9061) | 1 | -0.552 | 70.9 | inactive
PAPSS1 (GeneID 9061) | 2 | 2.27 | 127 | inactive
PAPSS1 (GeneID 9061) | 3 | 0.119 | 84.3 | inactive
TWF2 (GeneID 11344) | 1 | -0.396 | 74 | inactive
TWF2 (GeneID 11344) | 2 | -1.36 | 54.8 | inactive
TWF2 (GeneID 11344) | 3 | -1.37 | 54.6 | inactive
NUAK2 (GeneID 81788) | 1 | 1.27 | 107 | inactive
NUAK2 (GeneID 81788) | 2 | -0.309 | 75.7 | inactive
NUAK2 (GeneID 81788) | 3 | 1.76 | 117 | inactive
TCEAL5 (GeneID 340543) | 1 | -0.491 | 72.1 | inactive
TCEAL5 (GeneID 340543) | 2 | 3.02 | 142 | active
TCEAL5 (GeneID 340543) | 3 | -0.235 | 77.2 | inactive
CD99 (GeneID 4267) | 1 | 0.173 | 85.3 | inactive
CD99 (GeneID 4267) | 2 | -0.843 | 65.1 | inactive
CD99 (GeneID 4267) | 3 | 0.441 | 90.7 | inactive
CLDN22 (GeneID 53842) | 1 | 0.562 | 93.1 | inactive
CLDN22 (GeneID 53842) | 2 | 1.47 | 111 | inactive
CLDN22 (GeneID 53842) | 3 | 1.84 | 118 | inactive
CXCL17 (GeneID 284340) | 1 | 0.598 | 93.8 | inactive
CXCL17 (GeneID 284340) | 2 | -0.205 | 77.8 | inactive
CXCL17 (GeneID 284340) | 3 | 0.827 | 98.3 | inactive
NCR2 (GeneID 9436) | 1 | 0.779 | 97.4 | inactive
NCR2 (GeneID 9436) | 2 | -0.935 | 63.3 | inactive
NCR2 (GeneID 9436) | 3 | 0.798 | 97.8 | inactive
EEF1A1 (GeneID 1915) | 1 | -0.309 | 75.7 | inactive
EEF1A1 (GeneID 1915) | 2 | -0.937 | 63.2 | inactive
EEF1A1 (GeneID 1915) | 3 | -1.28 | 56.5 | inactive
ZBED2 (GeneID 79413) | 1 | 1.59 | 113 | inactive
ZBED2 (GeneID 79413) | 2 | -0.415 | 73.6 | inactive
ZBED2 (GeneID 79413) | 3 | -0.0771 | 80.4 | inactive
STPG1 (GeneID 90529) | 1 | -0.00227 | 81.8 | inactive
STPG1 (GeneID 90529) | 2 | -0.304 | 75.8 | inactive
STPG1 (GeneID 90529) | 3 | 0.927 | 100 | inactive
BRAT1 (GeneID 221927) | 1 | 3.21 | 146 | active
BRAT1 (GeneID 221927) | 2 | 2.04 | 122 | inactive
BRAT1 (GeneID 221927) | 3 | -0.381 | 74.3 | inactive
NTN4 (GeneID 59277) | 1 | -1.63 | 49.5 | inactive
NTN4 (GeneID 59277) | 2 | 0.576 | 93.3 | inactive
NTN4 (GeneID 59277) | 3 | 1.93 | 120 | inactive
CRLF2 (GeneID 64109) | 1 | -0.226 | 77.4 | inactive
CRLF2 (GeneID 64109) | 2 | 0.092 | 83.7 | inactive
CRLF2 (GeneID 64109) | 3 | 0.671 | 95.2 | inactive
TRAPPC4 (GeneID 51399) | 1 | 0.144 | 84.8 | inactive
TRAPPC4 (GeneID 51399) | 2 | 0.0696 | 83.3 | inactive
TRAPPC4 (GeneID 51399) | 3 | -0.093 | 80 | inactive
FGF7 (GeneID 2252) | 1 | -0.704 | 67.9 | inactive
FGF7 (GeneID 2252) | 2 | -1.65 | 49.1 | inactive
FGF7 (GeneID 2252) | 3 | 2.58 | 133 | inactive
DHPS (GeneID 1725) | 1 | 1.01 | 102 | inactive
DHPS (GeneID 1725) | 2 | -1.05 | 61 | inactive
DHPS (GeneID 1725) | 3 | 0.247 | 86.8 | inactive
KCNJ12 (GeneID 3768) | 1 | 0.0519 | 82.9 | inactive
KCNJ12 (GeneID 3768) | 2 | -1 | 62 | inactive
KCNJ12 (GeneID 3768) | 3 | 0.565 | 93.1 | inactive
ASCL4 (GeneID 121549) | 1 | 1.71 | 116 | inactive
ASCL4 (GeneID 121549) | 2 | 1.81 | 118 | inactive
ASCL4 (GeneID 121549) | 3 | -0.528 | 71.4 | inactive
